Publication PMC12388358

How the values were obtained:
[1] = target: T1, H-NS (Escherichia coli K-12) (UniProt P0ACF8); assay: EMSA; conditions: H-NS 2.5-40 pmol, DNA 0.5 pmol; EMSA: standard conditions as cited; recombinant protein; label: 5'-FITC on the CD6R-FITC-R strand; probe letters rebuilt from the primers and the genome
T1 sequence (looked up, limits assumed): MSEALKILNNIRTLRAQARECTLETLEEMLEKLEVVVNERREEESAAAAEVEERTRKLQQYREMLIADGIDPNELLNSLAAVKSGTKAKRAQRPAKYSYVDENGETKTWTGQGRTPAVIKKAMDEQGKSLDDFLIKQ

RcsB [2] = target: T2, RcsB (UniProt P0DMC7); assay: EMSA; conditions: EMSA: standard conditions as cited, recombinant protein, protein details: C-terminal 6xHis, label: 5'-FITC on the CD6R-FITC-R strand, probe letters rebuilt from the primers and the genome
T2 sequence (looked up, limits assumed): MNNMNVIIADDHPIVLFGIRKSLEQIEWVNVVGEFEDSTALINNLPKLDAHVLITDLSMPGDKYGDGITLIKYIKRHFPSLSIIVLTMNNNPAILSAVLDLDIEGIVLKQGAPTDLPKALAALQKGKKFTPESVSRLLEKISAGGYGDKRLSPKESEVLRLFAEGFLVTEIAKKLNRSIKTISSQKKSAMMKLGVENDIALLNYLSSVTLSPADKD

RcsB + H-NS = assay: EMSA; conditions: RcsB and H-NS together, super-shifted complex, 2.5-40 pmol; EMSA: standard conditions as cited; recombinant protein; protein details: C-terminal 6xHis; label: 5'-FITC on the CD6R-FITC-R strand; probe letters rebuilt from the primers and the genome
[3] = target: T3, RcsB D56N (Escherichia coli K-12 BW25113) (UniProt P0DMC7); assay: EMSA; conditions: 10-20 pmol, DNA 0.5 pmol; EMSA: standard conditions as cited; recombinant protein; protein details: His; label: 5'-FITC on the CD6R-FITC-R strand; probe letters rebuilt from the primers and the genome
T3 sequence (looked up, limits assumed): T2 sequence (looked up, limits assumed) with D56N

RcsB [4] = target: T2, RcsB; assay: DNase I footprinting; conditions: RcsB 20-80 pmol, DNA 1.0 pmol, protects -31 to +54; Footprinting: 10 mM Tris/HCl pH 7.8, 150 mM NaCl, 3 mM Mg acetate, 5 mM CaCl2, 25 ug/mL BSA, 37 C 30 min, digestion at 25 C; recombinant protein; protein details: C-terminal 6xHis; label: 5'-FITC on the CD6R-FITC-R strand; probe letters rebuilt from the primers and the genome

Measured: binding result

GCACTGCTGTGTGTAGTAATAAATCAGCCCTAAATGGGTAAAATATAAAACTAATGGATTACATCTGATTTCAATCTAGCCATTACAAATCTTAAATCAAGTGTTAAACATGTAACTAAATGTAACTCGTTATATTAAAATGTTAACCTTAAGGTTTTATTAAGTTTAGAAATGATAGAAAAGTTGTACATTTGGTTTTTATTGCACAATTTTAAAAAATCATACAAATGGTGATAACTTACTAATAATGCATATAAAAAATATTTCGGTGTAGTCCTTTCGTCATGTAAAACGTTCTTGTTTTTTCTCCACACCTCCGTGGACAATTTTTTACTGCAAAAAGACGAGGTTTGTCACGGCTTGTGCGCAAGACATATCGCAGCAATCAGCGACGGGCAAGAAGAATTCCTGTCT (double strand) [csgD promoter probe (-335 to +67)]
binds: [1] | RcsB [2]; 10 mM acetyl phosphate, binding unaffected | RcsB [2]; no acetyl phosphate, RcsB 2.5-40 pmol, DNA 0.5 pmol | RcsB + H-NS | [3] | RcsB [4]

Substitutions are numbered along the chain they refer to. Construct, isoform or probe ends are uncertain for at least one entry. For part of these data: Tags and fusion partners may be left off the protein sequences shown.
